Results: publication PMC6700799
These are yes or no findings as the source states them, for the method shown. Binding seen in cells or lysates may run through a third protein. Some results given as binding are weak or reduced against the parent protein; the word gives no strength. Values belong to the molecule of their own block, whether it stands above or below them.

The chains behind the UniProt entries cited, without tags or fusion partners.
UniProt P09429: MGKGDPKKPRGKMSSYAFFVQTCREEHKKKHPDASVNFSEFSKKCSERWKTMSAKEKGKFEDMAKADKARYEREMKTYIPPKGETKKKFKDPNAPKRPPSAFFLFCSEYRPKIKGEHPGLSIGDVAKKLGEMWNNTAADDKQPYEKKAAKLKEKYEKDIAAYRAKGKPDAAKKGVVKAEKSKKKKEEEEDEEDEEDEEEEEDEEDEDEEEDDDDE

Tests used:
[1] = target: T1, SEPT9 protein (human (endogenous in HeLa)) (UniProt Q9UHD8); assay: co-IP; nuclear extracts from HeLa, endogenous proteins; IP with 5 ug antibody and 500 ug protein, protein A+G beads, Western blotting
T1 sequence: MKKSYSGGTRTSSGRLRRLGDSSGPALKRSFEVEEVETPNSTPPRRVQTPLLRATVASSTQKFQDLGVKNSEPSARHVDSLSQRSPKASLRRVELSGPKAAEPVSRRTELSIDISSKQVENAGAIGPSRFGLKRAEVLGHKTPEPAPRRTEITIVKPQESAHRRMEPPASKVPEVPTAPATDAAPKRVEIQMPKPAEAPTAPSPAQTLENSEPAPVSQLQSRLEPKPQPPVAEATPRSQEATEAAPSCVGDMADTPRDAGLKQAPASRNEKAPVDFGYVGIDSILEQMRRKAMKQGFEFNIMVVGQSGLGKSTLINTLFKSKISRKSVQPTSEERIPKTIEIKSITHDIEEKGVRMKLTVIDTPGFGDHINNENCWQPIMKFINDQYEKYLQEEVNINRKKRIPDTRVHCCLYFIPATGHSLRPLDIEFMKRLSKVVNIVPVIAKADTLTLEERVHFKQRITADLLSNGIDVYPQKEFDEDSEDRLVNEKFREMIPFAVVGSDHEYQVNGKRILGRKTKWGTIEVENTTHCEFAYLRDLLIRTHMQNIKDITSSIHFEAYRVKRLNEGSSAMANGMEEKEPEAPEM

[2] = target: HMGB1 protein (human (endogenous in HeLa and CaSki)) (UniProt P09429); assay: as above

- binding [1]: binds
Molecule: HMGB1 protein (from UniProt P09429 1-215)

- binding [2]: binds
B1: RB protein (protein, UniProt P06400 1-928)
chain: MPPKTPRKTAATAAAAAAEPPAPPPPPPPEEDPEQDSGPEDLPLVRLEFEETEEPDFTALCQKLKIPDHVRERAWLTWEKVSSVDGVLGGYIQKKKELWGICIFIAAVDLDEMSFTFTELQKNIEISVHKFFNLLKEIDTSTKVDNAMSRLLKKYDVLFALFSKLERTCELIYLTQPSSSISTEINSALVLKVSWITFLLAKGEVLQMEDDLVISFQLMLCVLDYFIKLSPPMLLKEPYKTAVIPINGSPRTPRRGQNRSARIAKQLENDTRIIEVLCKEHECNIDEVKNVYFKNFIPFMNSLGLVTSNGLPEVENLSKRYEEIYLKNKDLDARLFLDHDKTLQTDSIDSFETQRTPRKSNLDEEVNVIPPHTPVRTVMNTIQQLMMILNSASDQPSENLISYFNNCTVNPKESILKRVKDIGYIFKEKFAKAVGQGCVEIGSQRYKLGVRLYYRVMESMLKSEEERLSIQNFSKLLNDNIFHMSLLACALEVVMATYSRSTSQNLDSGTDLSFPWILNVLNLKAFDFYKVIESFIKAEGNLTREMIKHLERCEHRIMESLAWLSDSPLFDLIKQSKDREGPTDHLESACPLNLPLQNNHTAADMYLSPVRSPKKKGSTTRVNSTANAETQATSAFQTQKPLKSTSLSLFYKKVYRLAYLRLNTLCERLLSEHPELEHIIWTLFQHTLQNEYELMRDRHLDQIMMCSMYGICKVKNIDLKFKIIVTAYKDLPHAVQETFKRVLIKEEEYDSIIVFYNSVFMQRLKTNILQYASTRPPTLSPIPHIPRSPYKFPSSPLRIPGGNIYISPLKSPYKISEGLPTPTKMTPRSRILVSIGESFGTSEKFQKINQMVCNSDRVLKRSAEGSNPPKPLKKLRFDIEGSDEADGSKHLPGESKFQQKLAEMTSTRTRMQKQKMNDSMDTSNKEEK
